Reference: paper PMC9143429
No constants are given. Whether binding was seen depends on the method and setting. Some results given as binding are weak or reduced against the parent protein; the word gives no strength. Sequences can lack the tags named with a protein.

Protein sequences, listed by entry. Tags and fused reporters are not part of them. Residues count along the entry.
UniProt Q3UH93, residues 49-1925: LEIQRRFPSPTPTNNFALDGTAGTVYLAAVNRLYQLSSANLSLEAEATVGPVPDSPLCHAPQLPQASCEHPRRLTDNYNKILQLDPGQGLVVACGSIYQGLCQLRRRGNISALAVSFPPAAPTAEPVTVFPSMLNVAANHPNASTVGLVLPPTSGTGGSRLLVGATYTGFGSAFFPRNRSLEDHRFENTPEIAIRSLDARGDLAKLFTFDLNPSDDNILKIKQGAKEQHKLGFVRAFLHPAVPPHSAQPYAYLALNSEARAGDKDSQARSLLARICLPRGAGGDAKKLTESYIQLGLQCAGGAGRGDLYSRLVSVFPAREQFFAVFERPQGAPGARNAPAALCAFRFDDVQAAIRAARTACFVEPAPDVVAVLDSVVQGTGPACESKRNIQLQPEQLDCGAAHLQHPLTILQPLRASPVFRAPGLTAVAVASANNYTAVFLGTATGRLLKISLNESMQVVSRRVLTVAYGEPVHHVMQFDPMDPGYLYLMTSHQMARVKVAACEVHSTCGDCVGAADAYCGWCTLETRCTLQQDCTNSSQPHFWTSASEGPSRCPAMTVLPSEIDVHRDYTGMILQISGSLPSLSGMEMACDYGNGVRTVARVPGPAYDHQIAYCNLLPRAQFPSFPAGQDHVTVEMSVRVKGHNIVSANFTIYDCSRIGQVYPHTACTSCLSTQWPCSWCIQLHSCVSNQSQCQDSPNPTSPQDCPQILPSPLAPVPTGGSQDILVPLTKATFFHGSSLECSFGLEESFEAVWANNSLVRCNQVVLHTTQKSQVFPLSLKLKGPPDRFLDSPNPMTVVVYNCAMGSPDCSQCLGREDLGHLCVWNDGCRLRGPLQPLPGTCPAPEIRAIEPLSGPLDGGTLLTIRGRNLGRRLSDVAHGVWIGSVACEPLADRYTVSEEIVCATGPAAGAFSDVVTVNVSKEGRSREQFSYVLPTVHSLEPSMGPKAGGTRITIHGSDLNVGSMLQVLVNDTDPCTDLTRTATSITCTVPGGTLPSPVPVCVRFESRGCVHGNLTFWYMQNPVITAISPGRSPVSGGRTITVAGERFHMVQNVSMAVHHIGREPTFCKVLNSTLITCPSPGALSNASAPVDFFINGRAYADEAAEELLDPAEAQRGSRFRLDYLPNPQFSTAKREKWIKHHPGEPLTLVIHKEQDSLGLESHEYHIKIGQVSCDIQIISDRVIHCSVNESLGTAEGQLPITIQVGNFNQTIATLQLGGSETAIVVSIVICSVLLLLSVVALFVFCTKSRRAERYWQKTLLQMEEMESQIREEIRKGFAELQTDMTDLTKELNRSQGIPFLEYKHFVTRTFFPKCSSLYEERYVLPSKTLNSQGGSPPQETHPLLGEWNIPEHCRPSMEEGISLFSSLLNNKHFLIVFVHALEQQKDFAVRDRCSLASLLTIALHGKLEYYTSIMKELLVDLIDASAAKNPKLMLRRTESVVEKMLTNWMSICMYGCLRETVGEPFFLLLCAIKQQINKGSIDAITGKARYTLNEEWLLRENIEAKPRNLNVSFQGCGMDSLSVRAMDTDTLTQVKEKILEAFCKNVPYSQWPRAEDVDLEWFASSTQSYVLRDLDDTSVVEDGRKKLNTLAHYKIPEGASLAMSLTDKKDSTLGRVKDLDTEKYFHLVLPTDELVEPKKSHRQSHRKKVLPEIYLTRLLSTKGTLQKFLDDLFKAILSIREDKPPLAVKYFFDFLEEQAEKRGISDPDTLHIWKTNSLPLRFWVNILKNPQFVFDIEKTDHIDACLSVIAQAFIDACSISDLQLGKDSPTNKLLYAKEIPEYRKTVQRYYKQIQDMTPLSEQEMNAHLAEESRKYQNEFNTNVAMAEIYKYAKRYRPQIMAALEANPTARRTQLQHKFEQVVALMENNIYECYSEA

Target: PlexinD1 (PLXND1) (mouse (endogenous in GN11 cells and E14.5 mouse brain)) (UniProt Q3UH93)
Test: AP-binding assay; conditioned medium of COS-7 cells transfected with AP-SEMA3E put on methanol-fixed GN11 cells for 2 h at RT in PBS/MgCl2 after blocking with 10% FBS; endogenous AP heat-inactivated (65 °C, 3 h); bound AP detected with NBT/BCIP

B1: Alkaline Phosphatase (AP)-tagged human SEMA3E, wild type (ligand, UniProt O15041-1 26-775)
chain: ADTTHPRLRLSHKELLNLNRTSIFHSPFGFLDLHTMLLDEYQERLFVGGRDLVYSLSLERISDGYKEIHWPSTALKMEECIMKGKDAGECANYVRVLHHYNRTHLLTCGTGAFDPVCAFIRVGYHLEDPLFHLESPRSERGRGRCPFDPSSSFISTLIGSELFAGLYSDYWSRDAAIFRSMGRLAHIRTEHDDERLLKEPKFVGSYMIPDNEDRDDNKVYFFFTEKALEAENNAHAIYTRVGRLCVNDVGGQRILVNKWSTFLKARLVCSVPGMNGIDTYFDELEDVFLLPTRDHKNPVIFGLFNTTSNIFRGHAICVYHMSSIRAAFNGPYAHKEGPEYHWSVYEGKVPYPRPGSCASKVNGGRYGTTKDYPDDAIRFARSHPLMYQAIKPAHKKPILVKTDGKYNLKQIAVDRVEAEDGQYDVLFIGTDNGIVLKVITIYNQEMESMEEVILEELQIFKDPVPIISMEISSKRQQLYIGSASAVAQVRFHHCDMYGSACADCCLARDPYCAWDGISCSRYYPTGTHAKRRFRRQDVRHGNAAQQCFGQQFVGDALDKTEEHLAYGIENNSTLLECTPRSLQAKVIWFVQKGRETRKEEVKTDDRVVKMDLGLLFLRLHKSDAGTYFCQTVEHSFVHTVRKITLEVVEEEKVEDMFNKDDEEDRHHRMPCPAQSSISQGAKPWYKEFLQLIGYSNFQRVEEYCEKVWCTDRKRKKLKMSPSKWKYANPQEKKLRSKPEHYRLPRHTLDS
- binding: binds
